Article PMC5562708
These are yes or no findings as the source states them, for the method shown. Binding seen in cells or lysates may run through a third protein. Some entries that bind do so weakly or less than the wild type. Tags and fused reporters may be left off the sequences shown.

By UniProt entry, the sequences of proteins in these tests, tags left out. Residues count along the entry.
UniProt Q13873, residues 27-1038: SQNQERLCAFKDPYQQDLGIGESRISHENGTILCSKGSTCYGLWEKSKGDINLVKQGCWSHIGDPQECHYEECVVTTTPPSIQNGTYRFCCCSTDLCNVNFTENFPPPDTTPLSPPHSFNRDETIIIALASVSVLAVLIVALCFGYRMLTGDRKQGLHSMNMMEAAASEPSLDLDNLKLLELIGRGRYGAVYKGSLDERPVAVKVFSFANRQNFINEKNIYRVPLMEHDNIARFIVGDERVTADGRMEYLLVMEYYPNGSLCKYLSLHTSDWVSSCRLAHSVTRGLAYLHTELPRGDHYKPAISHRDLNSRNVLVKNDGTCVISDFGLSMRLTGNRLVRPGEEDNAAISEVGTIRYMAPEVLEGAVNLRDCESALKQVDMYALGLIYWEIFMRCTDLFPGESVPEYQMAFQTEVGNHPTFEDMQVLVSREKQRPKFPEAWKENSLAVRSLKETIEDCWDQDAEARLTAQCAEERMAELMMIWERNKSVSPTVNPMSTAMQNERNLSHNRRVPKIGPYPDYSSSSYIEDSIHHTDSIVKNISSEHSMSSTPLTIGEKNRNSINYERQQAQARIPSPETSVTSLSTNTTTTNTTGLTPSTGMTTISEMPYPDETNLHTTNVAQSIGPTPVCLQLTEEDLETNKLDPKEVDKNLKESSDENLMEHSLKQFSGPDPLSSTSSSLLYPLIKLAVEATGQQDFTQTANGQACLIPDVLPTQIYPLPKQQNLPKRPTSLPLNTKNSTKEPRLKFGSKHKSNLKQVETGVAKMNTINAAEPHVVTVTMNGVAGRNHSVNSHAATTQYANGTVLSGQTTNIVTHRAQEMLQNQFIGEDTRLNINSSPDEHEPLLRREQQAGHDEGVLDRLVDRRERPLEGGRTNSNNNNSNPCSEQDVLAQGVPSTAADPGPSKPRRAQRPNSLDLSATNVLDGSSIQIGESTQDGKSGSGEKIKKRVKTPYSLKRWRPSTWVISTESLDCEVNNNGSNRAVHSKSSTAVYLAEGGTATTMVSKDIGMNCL

Experiments:
[1] = target: T1, IRS4 A1174 truncation (myc-tagged) (mouse) (UniProt Q9Z0Y7); experiment: co-IP; transfected HEK293T cells, lysed directly or starved 6 h and stimulated with 10 nM BMP2; RIPA or TNE buffer; IP with anti-myc (9E10) or anti-IRS4 antibody overnight, protein A sepharose; Western blot
T1 sequence: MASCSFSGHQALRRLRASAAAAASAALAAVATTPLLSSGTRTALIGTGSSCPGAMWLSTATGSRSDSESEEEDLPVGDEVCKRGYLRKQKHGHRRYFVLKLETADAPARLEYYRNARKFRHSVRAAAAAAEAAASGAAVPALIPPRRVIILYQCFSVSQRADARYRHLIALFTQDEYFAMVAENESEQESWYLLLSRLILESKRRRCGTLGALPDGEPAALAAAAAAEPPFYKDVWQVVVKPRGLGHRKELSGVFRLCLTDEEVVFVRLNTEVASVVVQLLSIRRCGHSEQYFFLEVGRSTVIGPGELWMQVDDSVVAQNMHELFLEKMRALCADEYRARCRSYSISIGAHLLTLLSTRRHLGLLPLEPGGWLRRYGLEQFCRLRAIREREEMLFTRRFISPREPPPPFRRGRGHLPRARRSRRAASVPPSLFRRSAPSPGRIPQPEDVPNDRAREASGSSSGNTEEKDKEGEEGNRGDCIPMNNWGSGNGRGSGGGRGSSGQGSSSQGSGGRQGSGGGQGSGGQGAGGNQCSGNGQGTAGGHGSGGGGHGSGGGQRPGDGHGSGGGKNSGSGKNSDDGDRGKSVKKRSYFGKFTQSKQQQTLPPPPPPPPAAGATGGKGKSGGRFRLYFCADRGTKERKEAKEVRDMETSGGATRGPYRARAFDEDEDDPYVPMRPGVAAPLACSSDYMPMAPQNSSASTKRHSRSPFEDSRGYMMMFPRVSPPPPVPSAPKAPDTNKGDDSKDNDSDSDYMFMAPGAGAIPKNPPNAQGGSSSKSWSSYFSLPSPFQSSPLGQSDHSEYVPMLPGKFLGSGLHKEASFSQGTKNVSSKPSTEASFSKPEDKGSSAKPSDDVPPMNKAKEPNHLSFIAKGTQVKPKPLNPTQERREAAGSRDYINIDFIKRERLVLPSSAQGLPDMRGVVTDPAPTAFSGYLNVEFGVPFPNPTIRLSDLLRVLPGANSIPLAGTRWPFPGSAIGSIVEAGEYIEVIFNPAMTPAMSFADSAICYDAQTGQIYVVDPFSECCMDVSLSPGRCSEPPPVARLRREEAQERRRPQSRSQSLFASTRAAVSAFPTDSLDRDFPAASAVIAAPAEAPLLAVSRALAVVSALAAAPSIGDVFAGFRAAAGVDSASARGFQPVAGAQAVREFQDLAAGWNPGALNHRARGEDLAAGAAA

[2] = target: T2, IRS4 truncation from the C-terminus to amino acid residue 604 (myc-tagged) (mouse) (UniProt Q9Z0Y7); experiment: as above
T2 sequence: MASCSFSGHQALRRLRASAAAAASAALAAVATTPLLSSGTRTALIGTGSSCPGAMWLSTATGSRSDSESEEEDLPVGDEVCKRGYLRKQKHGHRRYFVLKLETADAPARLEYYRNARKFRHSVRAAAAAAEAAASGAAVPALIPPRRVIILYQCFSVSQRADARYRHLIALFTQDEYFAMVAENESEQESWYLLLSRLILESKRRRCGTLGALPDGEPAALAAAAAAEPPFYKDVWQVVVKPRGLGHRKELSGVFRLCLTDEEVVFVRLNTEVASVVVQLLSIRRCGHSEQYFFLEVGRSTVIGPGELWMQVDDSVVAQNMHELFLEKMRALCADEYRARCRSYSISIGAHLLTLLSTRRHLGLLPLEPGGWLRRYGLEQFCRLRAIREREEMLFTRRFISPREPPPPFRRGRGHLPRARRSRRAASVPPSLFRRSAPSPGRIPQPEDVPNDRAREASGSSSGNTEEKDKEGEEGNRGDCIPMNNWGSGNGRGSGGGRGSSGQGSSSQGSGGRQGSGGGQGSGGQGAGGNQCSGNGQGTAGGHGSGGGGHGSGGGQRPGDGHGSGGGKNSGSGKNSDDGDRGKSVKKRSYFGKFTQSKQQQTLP

binding [1]: binds | binding [2]: binds
Substance: HA-tagged BMPRII long form (HA-BMPRII-LF) (from UniProt Q13873 27-1038) (receptor)
